PubChem BioAssay AID1259254 | NCATS | 2017
The deposit covers about 59,000 reagents; below is an unselected part. About 1,550 of all reagents (2.6%) count as active. 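G2 share is only a proxy for re-replication; each gene was hit by three separate siRNAs, and active genes were retested.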 The numbers tell different reagents against one gene apart. Further read-outs or replicates are left out here. Reagent sequences are not shown. Not given: the amount of reagent.

- Test: 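Finding genes that stop cells copying their DNA twice in one cycle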 (primary screen)
- System: human HCT116 colorectal cancer cells
- Reagents: single siRNA against human genes
- Timing: 3 days
- Measured: 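Imaged Hoechst DNA stain sorts each cell into a cycle phase by DNA amount; per plate, G2 fraction set to 0% for non-targeting and 100% for GMNN siRNA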
- Reading the numbers: G2 robust z-score: higher = more G2 cells, more excess DNA replication
- Call rule: 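Active siRNAs have a G2 robust z of 5 or more median absolute deviations over the median, which in these data means about 38% or higher of GMNN control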

With knock-down of SARDH #1, the screen gave G2 robust z-score 1.52; inactive.
Against SARDH #2, the entry reads G2 robust z-score 2.08; inactive.
Knock-down of SARDH #3 came out at: G2 robust z-score 0.0507; inactive.
Knock-down of HMGN2P31 #1 gave: G2 robust z-score -0.193; inactive.
With knock-down of HMGN2P31 #2 the results were G2 robust z-score -0.673; inactive.
With knock-down of HMGN2P31 #3 the results were G2 robust z-score 0.366; inactive.
Knock-down of MTCL1 #1 gave: G2 robust z-score 5.94; active.
Depletion of MTCL1 #2 resulted in: G2 robust z-score -0.614; inactive.
MTCL1 #3 scored G2 robust z-score -0.816; inactive.
TLR5 #1 scored G2 robust z-score 1.12; inactive.
TLR5 #2 gave G2 robust z-score -0.711; inactive.
After knock-down of TLR5 #3, the screen gave G2 robust z-score -0.708; inactive.
With knock-down of HELZ2 #1 the results were G2 robust z-score -0.299; inactive.
For HELZ2 #2, the entry reads G2 robust z-score 3.03; inactive.
HELZ2 #3 scored G2 robust z-score -1.4; inactive.
Silencing of C19orf73 #1 resulted in: G2 robust z-score -1.32; inactive.
With knock-down of C19orf73 #2 the results were G2 robust z-score -1.05; inactive.
After knock-down of C19orf73 #3, the screen gave G2 robust z-score 0.495; inactive.
Depletion of DAB2IP #1 resulted in: G2 robust z-score 0.542; inactive.
Against DAB2IP #2 the deposit lists G2 robust z-score 1.81; inactive.
DAB2IP #3 scored G2 robust z-score -0.0166; inactive.
PCDHA7 #1 scored G2 robust z-score 0.21; inactive.
Against PCDHA7 #2, the entry reads G2 robust z-score -0.588; inactive.
After knock-down of PCDHA7 #3, the screen gave G2 robust z-score -0.493; inactive.

2 of these entries, reformatted.
gene | reagent | G2 robust z-score | Outcome
HMGN2P31 | 3 | 0.366 | inactive
MTCL1 | 1 | 5.94 | active
